B1: PNISR (protein, UniProt Q8TF01 1-805, looked up)
Arginine/serine-rich protein …: MWDQGGQPWQQWPLNQQQWMQSFQHQQDPSQIDWAALAQAWIAQREASGQQSMVEQPPGMMPNGQDMSTMESGPNNHGNFQGDSNFNRMWQPEWGMHQQPPHPPPDQPWMPPTPGPMDIVPPSEDSNSQDSGEFAPDNRHIFNQNNHNFGGPPDNFAVGPVNQFDYQHGAAFGPPQGGFHPPYWQPGPPGPPAPPQNRRERPSSFRDRQRSPIALPVKQEPPQIDAVKRRTLPAWIREGLEKMEREKQKKLEKERMEQQRSQLSKKEKKATEDAEGGDGPRLPQRSKFDSDEEEEDTENVEAASSGKVTRSPSPVPQEEHSDPEMTEEEKEYQMMLLTKMLLTEILLDVTDEEIYYVAKDAHRKATKAPAKQLAQSSALASLTGLGGLGGYGSGDSEDERSDRGSESSDTDDEELRHRIRQKQEAFWRKEKEQQLLHDKQMEEEKQQTERVTKEMNEFIHKEQNSLSLLEAREADGDVVNEKKRTPNETTSVLEPKKEHKEKEKQGRSRSGSSSSGSSSSNSRTSSTSSTVSSSSYSSSSGSSRTSSRSSSPKRKKRHSRSRSPTIKARRSRSRSYSRRIKIESNRARVKIRDRRRSNRNSIERERRRNRSPSRERRRSRSRSRDRRTNRASRSRSRDRRKIDDQRGNLSGNSHKHKGEAKEQERKKERSRSIDKDRKKKDKEREREQDKRKEKQKREEKDFKFSSQDDRLKRKRESERTFSRSGSISVKIIRHDSRQDSKKSTTKDSKKHSGSDSSGRSSSESPGSSKEKKAKKPKHSRSRSVEKSQRSGKKASRKHKSKSRSR
B2: RRP36 (protein, UniProt Q96EU6 1-259, looked up)
Ribosomal RNA processing …: MPGANYRAGAGAGAGARRPRGARDREEDGGGLEPAAVARDLLRGTSNMSFEELLELQSQVGTKTYKQLVAGNSPKKQASRPPIQNACVADKHRPLEMSAKIRVPFLRQVVPISKKVARDPRFDDLSGEYNPEVFDKTYQFLNDIRAKEKELVKKQLKKHLSGEEHEKLQQLLQRMEQQEMAQQERKQQQELHLALKQERRAQAQQGHRPYFLKKSEQRQLALAEKFKELKRSKKLENFLSRKRRRNAGKDRRHLPLSKE
B3: LBR (protein, UniProt Q14739 1-615, looked up)
Delta(14)-sterol reductase LBR: MPSRKFADGEVVRGRWPGSSLYYEVEILSHDSTSQLYTVKYKDGTELELKENDIKPLTSFRQRKGGSTSSSPSRRRGSRSRSRSRSPGRPPKSARRSASASHQADIKEARREVEVKLTPLILKPFGNSISRYNGEPEHIERNDAPHKNTQEKFSLSQESSYIATQYSLRPRREEVKLKEIDSKEEKYVAKELAVRTFEVTPIRAKDLEFGGVPGVFLIMFGLPVFLFLLLLMCKQKDPSLLNFPPPLPALYELWETRVFGVYLLWFLIQVLFYLLPIGKVVEGTPLIDGRRLKYRLNGFYAFILTSAVIGTSLFQGVEFHYVYSHFLQFALAATVFCVVLSVYLYMRSLKAPRNDLSPASSGNAVYDFFIGRELNPRIGTFDLKYFCELRPGLIGWVVINLVMLLAEMKIQDRAVPSLAMILVNSFQLLYVVDALWNEEALLTTMDIIHDGFGFMLAFGDLVWVPFIYSFQAFYLVSHPNEVSWPMASLIIVLKLCGYVIFRGANSQKNAFRKNPSDPKLAHLKTIHTSTGKNLLVSGWWGFVRHPNYLGDLIMALAWSLPCGFNHILPYFYIIYFTMLLVHREARDEYHCKKKYGVAWEKYCQRVPYRIFPYIY
B4: BYSL (protein, UniProt Q13895 1-437, looked up)
Bystin: MPKFKAARGVGGQEKHAPLADQILAGNAVRAGVREKRRGRGTGEAEEEYVGPRLSRRILQQARQQQEELEAEHGTGDKPAAPRERTTRLGPRMPQDGSDDEDEEWPTLEKAATMTAAGHHAEVVVDPEDERAIEMFMNKNPPARRTLADIIMEKLTEKQTEVETVMSEVSGFPMPQLDPRVLEVYRGVREVLSKYRSGKLPKAFKIIPALSNWEQILYVTEPEAWTAAAMYQATRIFASNLKERMAQRFYNLVLLPRVRDDVAEYKRLNFHLYMALKKALFKPGAWFKGILIPLCESGTCTLREAIIVGSIITKCSIPVLHSSAAMLKIAEMEYSGANSIFLRLLLDKKYALPYRVLDALVFHFLGFRTEKRELPVLWHQCLLTLVQRYKADLATDQKEALLELLRLQPHPQLSPEIRRELQSAVPRDVEDVPITVE
B5: SLC25A3 (protein, UniProt Q00325 50-362, looked up)
Solute carrier family 25 …: AVEEQYSCDYGSGRFFILCGLGGIISCGTTHTALVPLDLVKCRMQVDPQKYKGIFNGFSVTLKEDGVRGLAKGWAPTFLGYSMQGLCKFGFYEVFKVLYSNMLGEENTYLWRTSLYLAASASAEFFADIALAPMEAAKVRIQTQPGYANTLRDAAPKMYKEEGLKAFYKGVAPLWMRQIPYTMMKFACFERTVEALYKFVVPKPRSECSKPEQLVVTFVAGYIAGVFCAIVSHPADSVVSVLNKEKGSSASLVLKRLGFKGVWKGLFARIIMIGTLTALQWFIYDSVKVYFRLPRPPPPEMPESLKKKLGLTQ

System: BAF complex subunits and histone proteins
Assay: Mass spectrometry proteomics of purified HA-SS18 WT and HA-SS18-SSX1 complexes (Tables 5A-5E)
Design: species or system human
Settings: HEK-293T; for Total (peptides) / Unique (peptides): HA-SS18WT_NE_peptides: HA-SS18 WT complexes purified from nuclear extract (NE), label = protein identified (Gene Symbol)
[1] = HA-SS18SSX1_CHR_peptides: protein identified in the HA-SS18-SSX1 purification from solubilized chromatin (CHR)
[2] = HA-SS18WT_CHR_peptides: protein identified in HA-SS18 WT BAF complex purification from nuclease-treated solubilized chromatin (CHR)
[3] = HA-SS18SSX1 purification, NE (soluble nuclear extract) fraction, peptides per identified protein

Molecule | Total (total peptides) [1] | Unique (unique peptides) [1] | Total (total peptides) [2] | Unique (unique peptides) [2] | Total (total peptides) [3] | Unique (unique peptides) [3] | Total (peptides) | Unique (peptides)
B1 | 5 | 3 |  |  |  |  |  | 
B2 | 5 | 4 | 2 | 2 |  |  |  | 
B3 | 5 | 5 |  |  | 5 | 4 | 7 | 6
B4 | 5 | 5 | 2 | 2 |  |  |  | 
B5 | 5 | 3 | 2 | 2 | 22 | 10 | 24 | 13

From patent US20250283871A1, “COMPOSITIONS AND METHODS FOR MODULATING THE INTERACTION BETWEEN SS18-SSX FUSION ONCOPROTEIN AND NUCLEOSOMES” (Dana-Farber Cancer Institute, Inc., priority 2020, published 2025)
